PubChem BioAssay AID686937 | Drosophila RNAi Screening Center | 2013

Test: 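Knock-downs that reduce output of a secreted reporter enzyme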 (primary screen)
System: Drosophila S2 cells expressing secreted horseradish peroxidase
Knock-down reagent: long dsRNA against Drosophila genes
Timing: about 5.5 days (5 days dsRNA, then 12 h reporter induction)
Challenge: reporter expression induced after 5 days of dsRNA, read 12 h later; inducer not stated
Measured: 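After 5 days of dsRNA and 12 h of reporter induction, medium peroxidase read by chemiluminescence and scored as per-plate z-score; higher values mean more reporter released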
Direction: z-score: higher = more reporter secreted into medium
In all, the deposit lists about 23,000 reagents; this is a random part of those with a known target gene and a result. 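Reduced-secretion tags in replicate 1 do not always agree with the z-scores; no criterion for assigning the tags was given.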 The numbers tell different reagents against one gene apart. Names joined by + are all predicted targets of the reagent. Not all columns of the deposit are shown. Reagent sequences are not shown. Not stated in the record: the amount of reagent.

no.	gene	reagent no.	z-score, replicate 1	z-score, replicate 2	z-score, replicate 3
1	Ir60d (Ionotropic receptor 60d)	1	0.27	0.08	
2	l(1)G0196 (lethal (1) G0196)	1	0.31	0.37	
3	l(1)G0196 (lethal (1) G0196)	2	0.47	0.3	
4	Oscillin	1	0.29	0.13	0.08
5	Cbl (Cbl proto-oncogene)	1	0.16	0.29	
6	Cbl (Cbl proto-oncogene)	2	0	0.25	
7	CG44836	1	0.35	0.08	
8	Rai1 (Rat1 Interacting Protein 1)	1	0.3	0.08	
9	CG3358	1	0.11	0.45	
10	nudC	1	0.5	0.46	
11	nudC	2	0.22	0.23	
12	Noa36	1	0.48	0.57	
13	Lcp9 (Larval cuticle protein 9)	1	0.02	0.09	
14	IP3K2 (Inositol 1,4,5-triphosphate kinase 2)	1	-0.06	0.39	0.49
15	IP3K2 (Inositol 1,4,5-triphosphate kinase 2)	2	0.38	0.36	
16	IP3K2 (Inositol 1,4,5-triphosphate kinase 2)	3	0.29	-0.41	
17	pug (pugilist)	1	0.01	0.7	
18	Nct (Nicastrin)	1	0.26	0.24	
19	Cyp6d5 (Cytochrome P450 6d5)	1	0.27	0.21	
20	CG31957	1	-0.83	0.26	
21	CG11666	1	0.48	0.92	
22	Tpl94D (Transition protein-like 94D)	1	0.51	0.49	
23	CG30271	1	0.14	0.32	
24	CG9812	1	0.25	0.57	
25	Cyp9b2 (Cytochrome P450 9b2)	1	-0.05	0.23	
26	CG9286	1	0.21	0.4	
27	Mtp (Microsomal triacylglycerol transfer protein)	1	0.4	0.15	
28	Cp190 (Centrosomal protein 190kD)	1	-0.86	-0.47	

Next part, starting with the last 12 of the part before.
no.	gene	reagent no.	z-score, replicate 1	z-score, replicate 2	z-score, replicate 3
17	pug (pugilist)	1	0.01	0.7	
18	Nct (Nicastrin)	1	0.26	0.24	
19	Cyp6d5 (Cytochrome P450 6d5)	1	0.27	0.21	
20	CG31957	1	-0.83	0.26	
21	CG11666	1	0.48	0.92	
22	Tpl94D (Transition protein-like 94D)	1	0.51	0.49	
23	CG30271	1	0.14	0.32	
24	CG9812	1	0.25	0.57	
25	Cyp9b2 (Cytochrome P450 9b2)	1	-0.05	0.23	
26	CG9286	1	0.21	0.4	
27	Mtp (Microsomal triacylglycerol transfer protein)	1	0.4	0.15	
28	Cp190 (Centrosomal protein 190kD)	1	-0.86	-0.47	
29	mge (maggie)	1	-0.07	0.19	
30	Mcm6 (Minichromosome maintenance 6)	1	0.35	0.3	
31	shi (shibire)	1	0.69	0.37	
32	tj (traffic jam)	1	-0.14	0.01	
33	Vha14-2 (Vacuolar H[+] ATPase 14kD subunit 2)	1	-0.04	0.3	
34	Rab3-GEF (Rab3 GDP-GTP exchange factor)	1	0.27	0.41	
35	Rab3-GEF (Rab3 GDP-GTP exchange factor)	2	0.39	0.52	
36	Rab3-GEF (Rab3 GDP-GTP exchange factor)	3	0.37	-0.45	
37	CG33096	1	0.14	0.23	
38	Qtzl (Quetzalcoatl)	1	-0.89	0.03	
39	alpha-Est9 (alpha-Esterase-9)	1	0.1	0.4	
40	CG13321	1	0.24	-0.01	
41	CG13653	1	0.11	0.08	
42	CG17883	1	-0.09	0.07	
43	CG32374	1	0.14	0.29	
44	CG14252	1	0.28	0.62	
45	Dnai2 (dynein, axonemal, intermediate chain 2)	1	-0.22	-0.22	
46	Tektin-A (Tektin A)	1	0.2	0.28	
47	CG9636	1	0.42	0.33	
48	mip40 (Myb-interacting protein 40)	1	0.49	0.13	
49	opm (opossum)	1	0.1	0.39	
50	opm (opossum)	2	-0.34	-1.6	
51	CecA1 (Cecropin A1)	1	0.41	0.26	
52	alpha-Est2 (alpha-Esterase-2)	1	0.35	0.64	
53	CG9897 + asRNA:CR42742	1	0.15	0.26	
54	Zip48C (Zinc/iron regulated transporter-related protein 48C)	1	0.4	0.3	
55	CAH9 (Carbonic anhydrase 9)	1	0.36	0.51	
56	Hacd1 (3-hydroxyacyl-CoA dehydratase 1)	1	-0.07	0.21	
57	yps (ypsilon schachtel)	1	0.73	0.5	
58	CG17186	1	0.27	0.49	
59	sl (small wing)	1	0.44	0.37	
60	sl (small wing)	2	-0.74	-0.13	
61	Cmtr1 (Cap methyltransferase 1)	1	0.32	-0.01	
62	CalpA (Calpain-A)	1	0.39	0.4	
63	CG30431	1	0.34	0.15	
64	CG30431	2	0.21	0.36	
65	CG31174	1	0.26	0.16	
66	Dtwd2 + Obp84a	1	0.18	-0.41	
67	Msh6	1	0.15	0.13	
68	CG1371	1	0.37	0.4	
69	aru (arouser)	1	0.25	0.22	
70	aru (arouser)	2	-0.99	-0.38	
71	TotM (Turandot M)	1	0.47	0.33	
72	S6KL (S6 Kinase Like)	1	0.23	0.2	0.01
73	S6KL (S6 Kinase Like)	2	-0.21	0.59	
74	alpha-Est1 (alpha-Esterase-1)	1	0.37	0.53	
75	Arv1 (ACAT-related protein required for viability 1)	1	0.31	0.23	
76	Ppr-Y	1	0.01	-0.02	
77	CG17118	1	-0.13	0.01	
78	mtt (mangetout)	1	-0.23		
79	mtt (mangetout)	2	-0.82		
80	mtt (mangetout)	3	0.35	0.34	
81	mtt (mangetout)	4	0.56	0.44	
82	CG32683	1	0.55	0.45	
83	CG32683	2	0.49	0.29	
84	CG32683	3	0.6	0.18	
